Experimental data reported in paper PMC9305541.
These are yes or no findings as the source states them, for the method shown. Some results given as binding are weak or reduced against the parent protein; the word gives no strength. For some assays here: Tags and fused reporters may be left off the sequences shown. One block for each binder: values may come before it.

Tests used:
[1] = target: Arabidopsis thaliana catalase 2 (CAT2), endogenous in wild type (Col-0) leaves (Arabidopsis thaliana (endogenous in Col-0 leaves)) (UniProt P25819); test: native gel or EMSA; leaf extracts of 4-week-old plants (20 µg total protein; 100 mM Tris-HCl pH 8.0, 20% glycerol, 30 mM DTT) on 7.5% native PAGE, room temperature; western blot with anti-catalase antibody and in-gel activity assay
[2] = target: CAT2^PSI, untagged wild type AtCAT2 sequence expressed from the CAT2 promoter in the cat2-1 mutant (Arabidopsis thaliana) (UniProt P25819); test: as above

binding [1]: binds
B1: Arabidopsis thaliana catalase 2 (CAT2), endogenous in wild type (Col-0) leaves (enzyme, UniProt P25819 1-492)
chain: MDPYKYRPASSYNSPFFTTNSGAPVWNNNSSMTVGPRGPILLEDYHLVEKLANFDRERIPERVVHARGASAKGFFEVTHDISNLTCADFLRAPGVQTPVIVRFSTVIHERGSPETLRDPRGFAVKFYTREGNFDLVGNNFPVFFIRDGMKFPDMVHALKPNPKSHIQENWRILDFFSHHPESLNMFTFLFDDIGIPQDYRHMDGSGVNTYMLINKAGKAHYVKFHWKPTCGVKSLLEEDAIRVGGTNHSHATQDLYDSIAAGNYPEWKLFIQIIDPADEDKFDFDPLDVTKTWPEDILPLQPVGRMVLNKNIDNFFAENEQLAFCPAIIVPGIHYSDDKLLQTRVFSYADTQRHRLGPNYLQLPVNAPKCAHHNNHHEGFMNFMHRDEEVNYFPSRYDQVRHAEKYPTPPAVCSGKRERCIIEKENNFKEPGERYRTFTPERQERFIQRWIDALSDPRITHEIRSIWISYWSQADKSLGQKLASRLNVRPSI

binding [2]: binds
B2: CAT2^PSI, untagged wild type AtCAT2 sequence expressed from the CAT2 promoter in the cat2-1 mutant (enzyme, UniProt P25819 1-492)
chain: B1 chain
